# “And” between values parts separate entries of the source, which are not always exact repeats. Equal values may be shown once. Where a name gives a salt, the structure may show the parent alone. ± gives the standard deviation of the averaged measurements. The list shows a part of the results. Part of the spread comes from offsets between plates or batches.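 Assay uses culture-activated primary human stellate myofibroblasts; lipid droplet recovery indicates inactivation. Measured: proportion of Hoechst-counted cells over a plate-specific Bodipy cutoff, duplicate wells, DMSO and nortriptyline as per-plate negative and positive controls. A hit scores, control-normalized, above the plate's top-tenth-percentile nortriptyline wells or ranks among its three best wells. Final well concentrations not reported.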
# Tested on: primary human hepatic stellate cells (donor 1)
# Experiment: percent Bodipy-positive cells; higher = more lipid droplet accumulation
# Conditions: 48 h
# [1] = library stock concentration: 3.33 mM
# [2] = library stock concentration: 10 mM
# [3] = library stock concentration: 80 uM
# [4] = library stock concentration: 400 uM
# [5] = library stock concentration: 2 mM
# [6] = library stock concentration: 1 mM
smiles,measurement,setting,value
COc1ccnc2[nH]cc(C(=O)C(=O)N3CCN(C(=O)c4ccccc4)C[C@H]3C)c12,percent Bodipy-positive cells,[1],8.08 ± 2.4%
same,percent Bodipy-positive cells,[2],17.8 ± 0.66%
CCCCCCCCCCCCCCCCO [1-Hexadecanol],percent Bodipy-positive cells,[1],7.32 ± 1.4%
same,percent Bodipy-positive cells,[2],33.3 ± 8.8%
"CN(C)C(=O)N=NC(=O)N(C)C [N,N,N',N'-Tetramethylazodicarboxamide]",percent Bodipy-positive cells,[2],41.4 ± 3.3%
CCN1/C(=C/C(C)=O)Sc2ccc(OC)cc21,percent Bodipy-positive cells,[3],8.66 ± 6.2%
same,percent Bodipy-positive cells,[4],7.81 ± 1.9%
same,percent Bodipy-positive cells,[5],10.1 ± 3.3%
same,percent Bodipy-positive cells,[2],7.08% and 31.5%
C[C@H]1c2cccc(O)c2C(O)=C2C(=O)[C@]3(O)C(O)=C(C(N)=O)C(=O)[C@@H](N(C)C)[C@@H]3[C@@H](O)[C@@H]21 [Doxycycline Hyclate],percent Bodipy-positive cells,[1],8.68 ± 0.75%
same,percent Bodipy-positive cells,[2],36 ± 3.8%
Nc1nc(=O)c2c([nH]1)NCC(CNc1ccc(C(=O)N[C@@H](CCC(=O)O)C(=O)O)cc1)N2C=O (stereo not given in full) [Leucovorin calcium],percent Bodipy-positive cells,[2],16.9 ± 0.56%
C/N=C(/NC#N)NCCSCc1csc(NC(=N)N)n1 [Tiotidine],percent Bodipy-positive cells,library stock concentration: 6.4 mM,7.58 ± 0.72%
same,percent Bodipy-positive cells,[2],10.7 ± 0.65%
COc1ccc2nc3cc(Cl)ccc3c(Nc3cc(CN4CCCC4)c(O)c(CN4CCCC4)c3)c2n1,percent Bodipy-positive cells,[2],93.7 ± 1.6%
C=CCc1ccccc1OCC(O)CNC(C)C (stereo not given) [Alprenolol hydrochloride],percent Bodipy-positive cells,,60.8 ± 3.1%
same,percent Bodipy-positive cells,[2],78.3 ± 13%
C=CCc1ccccc1OCC(O)CNC(C)C (stereo not given) [Alprenolol HCl],percent Bodipy-positive cells,library stock concentration: 8 mM,33.8 ± 1.2%
Oc1c(Cl)cc(Cl)cc1Sc1cc(Cl)cc(Cl)c1O [Bithionate sodium],percent Bodipy-positive cells,library stock concentration: 5 mM,9.56 ± 2.3%
Oc1c(Cl)cc(Cl)cc1Sc1cc(Cl)cc(Cl)c1O [Bithionol],percent Bodipy-positive cells,[2],12.8 ± 3.3%
CC(=O)OC(C)C[N+](C)(C)C (stereo not given) [Methacholine chloride],percent Bodipy-positive cells,,9.14 ± 3.7%
same,percent Bodipy-positive cells,[2],14.7 ± 2.5%
CC(=O)OC(C)C[N+](C)(C)C (stereo not drawn) [Acetyl-beta-methylcholine chloride],percent Bodipy-positive cells,[2],48.3 ± 9.8%
CCCCOc1ccc(CC(=O)NO)cc1 [Bufexamac],percent Bodipy-positive cells,,22.5 ± 6.6%
same,percent Bodipy-positive cells,[1],7.98 ± 3.1%
same,percent Bodipy-positive cells,[2],13.1% and 18.4%
Cc1cc(C)cc(NC(=O)Cc2ccc(OC(C)(C)C(=O)O)cc2)c1 [Efaproxiral Sodium],percent Bodipy-positive cells,[1],13.5 ± 2.2%
same,percent Bodipy-positive cells,[2],30.2 ± 4.8%
CCCCC[C@H](CC(=O)NO)C(=O)N[C@H](C(=O)N1CCC[C@H]1CO)C(C)C [Actinonin],percent Bodipy-positive cells,[2],38.4 ± 8.4%
Cc1ccc(O)c([C@H](CCN(C(C)C)C(C)C)c2ccccc2)c1,percent Bodipy-positive cells,[2],52.04 ± 0.51%
Cc1ccc(O)c([C@H](CCN(C(C)C)C(C)C)c2ccccc2)c1 [Tolterodine tartrate],percent Bodipy-positive cells,[1],31.2 ± 5.9%
same,percent Bodipy-positive cells,[2],80.1 ± 12%
Cc1nc(N=Nc2ccc(S(=O)(=O)O)cc2S(=O)(=O)O)c(COP(=O)(O)O)c(C=O)c1O,percent Bodipy-positive cells,[2],8.42 ± 1.4%
O=C(O)c1cc(=O)c2c(OCC(O)COc3cccc4oc(C(=O)O)cc(=O)c34)cccc2o1 [Cromolyn sodium],percent Bodipy-positive cells,[2],11.233 ± 0.0092%
O=C(O)c1cc(=O)c2c(OCC(O)COc3cccc4oc(C(=O)O)cc(=O)c34)cccc2o1 [Cromolyn Sodium],percent Bodipy-positive cells,[2],47.7 ± 8.7%
O=C(O)c1cc(=O)c2c(OCC(O)COc3cccc4oc(C(=O)O)cc(=O)c34)cccc2o1 [Cromolyn disodium salt],percent Bodipy-positive cells,,16.6 ± 11%
CCCCC[C@H](O)/C=C/[C@@H]1[C@H](C/C=C\CCCC(=O)O)[C@H](O)C[C@H]1O [8-iso Prostaglandin F2.beta.],percent Bodipy-positive cells,[6],15.1 ± 1.9%
CC(=O)c1ccc2c(c1)N(CCCN1CCN(CCO)CC1)c1ccccc1S2,percent Bodipy-positive cells,[2],76.3 ± 2.7%
Cc1c(CC(C)(C)C(=O)O)n(Cc2ccc(Cl)cc2)c2ccc(F)cc12,percent Bodipy-positive cells,[2],7.36 ± 0.72%
CS(=O)(=O)c1ccc(Cn2c3c(c4cc(F)cc(F)c42)CCCC3CC(=O)O)cc1 (stereo not given),percent Bodipy-positive cells,[2],9.36 ± 2.2%
OC[C@H]1O[C@H](O[C@H]2[C@H](O)[C@@H](O)C(O)O[C@@H]2CO)[C@H](O)[C@@H](O)[C@@H]1O (stereo not given in full),percent Bodipy-positive cells,[2],25.6 ± 1.9%
O=c1cc(CN2CCOCC2)occ1OCCCCCSc1ccnc2cc(C(F)(F)F)ccc12,percent Bodipy-positive cells,[1],42.91 ± 0.35%
same,percent Bodipy-positive cells,[2],69.6 ± 3.8%
O[C@@H]1CO[C@H]2[C@@H]1OC[C@@H]2O [Isosorbide],percent Bodipy-positive cells,[1],15.5 ± 2.8%
same,percent Bodipy-positive cells,[2],27.2 ± 9.1%
COc1ccc(/C=C2\COc3ccc(C)cc3C2=O)cc1O,percent Bodipy-positive cells,[2],41.4 ± 3.8%
"COC1=C(OC)C(=O)c2ccccc2C1=O [2,3-Dimethoxy-1,4-naphthoquinone]",percent Bodipy-positive cells,[2],100%
"CCCCC[C@H](O)CC[C@@H]1[C@@H](CCCCCCC(=O)O)[C@@H](O)C[C@H]1O [13,14-dihydro Prostaglandin F1.alpha.]",percent Bodipy-positive cells,[6],13 ± 4.4%
"CCCCC[C@H](O)/C=C/[C@@H]1[C@H]2C/C=C\CCCC(=O)O[C@H]2C[C@H]1O [Prostaglandin F2.alpha. 1,9-lactone]",percent Bodipy-positive cells,[6],13.1 ± 3.3%
CCOc1ccc(Cc2cc([C@@H]3O[C@H](CO)[C@@H](O)[C@H](O)[C@H]3O)ccc2Cl)cc1 [Dapagliflozin],percent Bodipy-positive cells,[1],7.55 ± 2.6%
same,percent Bodipy-positive cells,[2],7.77 ± 0.61%
CCN(CC)CCNC(=O)c1c(C)[nH]c(/C=C2\C(=O)Nc3ccc(Cl)cc32)c1C,percent Bodipy-positive cells,[1],100%
COc1ccc2cc1Oc1ccc(cc1)C[C@H]1c3c(cc4c(c3Oc3cc5c(cc3OC)CCN(C)[C@@H]5C2)OCO4)CCN1C [Cepharanthine],percent Bodipy-positive cells,[2],93.38 ± 0.91%
CN(C)CCN1C(=O)c2cccc3cc(N)cc(c23)C1=O [Amonafide],percent Bodipy-positive cells,[1],44.4 ± 7.9%
same,percent Bodipy-positive cells,[2],76 ± 2.5%
CC1CCN(c2cc(N3CCN(C)CC3)ccc2NC(=O)c2cc(C#N)c[nH]2)CC1,percent Bodipy-positive cells,[3],3.57 ± 0.3%
same,percent Bodipy-positive cells,[4],9.46 ± 7.3%
same,percent Bodipy-positive cells,[5],17.9 ± 6.2%
CC(C)NCCCn1c(Sc2cc3c(cc2I)OCO3)nc2c(N)ncnc21,percent Bodipy-positive cells,[1],85.5 ± 1.9%
CC(C)CCC[C@@H](C)[C@H]1CC[C@H]2[C@@H]3CC=C4C[C@@H](O)CC[C@]4(C)[C@H]3CC[C@]12C [Cholesterol],percent Bodipy-positive cells,library stock concentration: 5.2 mM,17 ± 4.8%
Nc1ccn([C@@H]2O[C@H](CO)[C@@H](O)[C@H]2O)c(=O)n1 [Cytidine],percent Bodipy-positive cells,[1],15 ± 8.7%
same,percent Bodipy-positive cells,[2],6.16 ± 0.5%
CN(C)CCC(c1ccccc1)c1ccccn1 (stereo not given) [Pheniramine maleate],percent Bodipy-positive cells,,22.2 ± 0.97%
same,percent Bodipy-positive cells,[2],15.6% and 14.5%
CN(C)CCC(c1ccccc1)c1ccccn1 (stereo not given) [Pheniramine Maleate],percent Bodipy-positive cells,[1],17.1 ± 11%
same,percent Bodipy-positive cells,[2],43.8 ± 2.8%
Cc1cccc(Nc2nc(-c3ccncc3)cs2)c1,percent Bodipy-positive cells,[6],16.6 ± 6%
O=[N+]([O-])c1cc(Cl)ccc1S(=O)(=O)N1CCN(Cc2ccccc2)CC1,percent Bodipy-positive cells,[2],13.1 ± 3.4%
CCSc1ccc2c(c1)N(CCCN1CCN(C)CC1)c1ccccc1S2 [Thiethylperazine malate],percent Bodipy-positive cells,,35.5 ± 5.6%
CCCCc1nn(-c2ccccc2C(F)(F)F)c(=O)n1Cc1ccc(-c2ccccc2S(=O)(=O)NC(=O)c2sccc2C)cc1,percent Bodipy-positive cells,[2],9.81 ± 5.3%
